Laboratory results as given in the supplement of paper PMC12067093, “Discovery and optimisation of a covalent ligand for TRIM25 and its application to targeted protein ubiquitination” (Chemical Science, 2025).
The list shows a part of the results.

Amino acid sequences for entries named in this document (tags omitted). A change or cut given only in a name is not applied to a line headed by its entry.
UniProt Q15052: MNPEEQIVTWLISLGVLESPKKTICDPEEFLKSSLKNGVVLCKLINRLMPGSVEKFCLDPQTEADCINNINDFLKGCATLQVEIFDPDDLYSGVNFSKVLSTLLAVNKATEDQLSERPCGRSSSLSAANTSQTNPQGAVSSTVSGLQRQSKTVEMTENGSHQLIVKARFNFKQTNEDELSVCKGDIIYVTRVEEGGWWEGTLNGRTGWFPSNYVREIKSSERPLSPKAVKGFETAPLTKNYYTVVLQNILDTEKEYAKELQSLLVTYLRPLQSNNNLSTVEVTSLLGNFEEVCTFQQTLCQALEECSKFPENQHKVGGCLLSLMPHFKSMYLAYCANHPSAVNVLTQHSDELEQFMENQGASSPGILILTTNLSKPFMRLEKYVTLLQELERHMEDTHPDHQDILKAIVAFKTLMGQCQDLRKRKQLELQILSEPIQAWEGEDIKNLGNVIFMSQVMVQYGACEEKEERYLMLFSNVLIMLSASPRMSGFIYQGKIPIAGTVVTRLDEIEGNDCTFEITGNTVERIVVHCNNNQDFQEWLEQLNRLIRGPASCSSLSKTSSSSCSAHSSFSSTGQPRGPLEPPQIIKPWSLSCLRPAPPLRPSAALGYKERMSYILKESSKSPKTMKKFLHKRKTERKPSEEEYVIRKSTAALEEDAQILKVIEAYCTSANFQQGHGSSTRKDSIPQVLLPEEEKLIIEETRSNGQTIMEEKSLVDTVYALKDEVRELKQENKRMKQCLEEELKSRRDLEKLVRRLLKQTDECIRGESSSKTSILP
UniProt Q92619: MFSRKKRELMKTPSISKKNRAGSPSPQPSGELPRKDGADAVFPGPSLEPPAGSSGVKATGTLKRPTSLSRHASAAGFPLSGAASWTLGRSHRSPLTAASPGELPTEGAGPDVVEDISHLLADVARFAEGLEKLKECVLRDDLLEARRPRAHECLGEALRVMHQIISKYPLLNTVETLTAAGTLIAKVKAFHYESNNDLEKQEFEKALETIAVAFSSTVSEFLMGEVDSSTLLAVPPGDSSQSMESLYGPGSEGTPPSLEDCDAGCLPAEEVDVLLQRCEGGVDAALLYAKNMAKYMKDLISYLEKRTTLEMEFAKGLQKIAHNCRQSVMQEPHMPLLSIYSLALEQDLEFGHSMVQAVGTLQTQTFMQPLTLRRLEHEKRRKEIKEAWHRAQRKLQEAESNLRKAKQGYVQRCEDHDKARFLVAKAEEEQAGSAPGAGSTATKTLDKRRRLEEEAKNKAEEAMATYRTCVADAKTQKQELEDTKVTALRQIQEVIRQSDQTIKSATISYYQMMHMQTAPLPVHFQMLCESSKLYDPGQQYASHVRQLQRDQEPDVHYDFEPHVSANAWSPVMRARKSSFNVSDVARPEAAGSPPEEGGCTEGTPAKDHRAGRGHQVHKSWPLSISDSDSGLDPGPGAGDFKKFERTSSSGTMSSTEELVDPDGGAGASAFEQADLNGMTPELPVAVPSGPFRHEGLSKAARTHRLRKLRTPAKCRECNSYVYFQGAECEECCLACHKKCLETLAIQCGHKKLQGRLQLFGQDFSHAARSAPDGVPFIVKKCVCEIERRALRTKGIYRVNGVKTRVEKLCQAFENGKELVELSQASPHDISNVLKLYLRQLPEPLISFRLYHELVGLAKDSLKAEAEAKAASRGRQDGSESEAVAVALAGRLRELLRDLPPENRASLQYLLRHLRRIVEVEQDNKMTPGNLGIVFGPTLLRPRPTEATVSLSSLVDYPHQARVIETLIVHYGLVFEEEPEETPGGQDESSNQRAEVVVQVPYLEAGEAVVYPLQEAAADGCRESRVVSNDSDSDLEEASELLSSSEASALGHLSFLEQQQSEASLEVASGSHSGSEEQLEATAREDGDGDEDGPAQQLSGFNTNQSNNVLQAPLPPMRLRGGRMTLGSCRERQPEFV
UniProt Q9Y4X5: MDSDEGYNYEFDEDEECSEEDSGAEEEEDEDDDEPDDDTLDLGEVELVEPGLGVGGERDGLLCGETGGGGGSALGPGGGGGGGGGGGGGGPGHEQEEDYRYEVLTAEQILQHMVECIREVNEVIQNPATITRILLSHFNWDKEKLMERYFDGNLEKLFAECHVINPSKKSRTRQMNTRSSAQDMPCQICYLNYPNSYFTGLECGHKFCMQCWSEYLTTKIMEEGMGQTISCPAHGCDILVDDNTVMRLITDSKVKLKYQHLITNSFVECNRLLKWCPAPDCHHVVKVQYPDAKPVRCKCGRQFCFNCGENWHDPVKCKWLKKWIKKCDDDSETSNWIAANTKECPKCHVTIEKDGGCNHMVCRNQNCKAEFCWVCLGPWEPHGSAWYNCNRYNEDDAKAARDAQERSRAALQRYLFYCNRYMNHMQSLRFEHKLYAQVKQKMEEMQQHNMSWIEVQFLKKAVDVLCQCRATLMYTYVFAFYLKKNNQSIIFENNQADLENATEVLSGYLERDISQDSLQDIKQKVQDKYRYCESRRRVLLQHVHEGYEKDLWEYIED
UniProt Q9UKG1: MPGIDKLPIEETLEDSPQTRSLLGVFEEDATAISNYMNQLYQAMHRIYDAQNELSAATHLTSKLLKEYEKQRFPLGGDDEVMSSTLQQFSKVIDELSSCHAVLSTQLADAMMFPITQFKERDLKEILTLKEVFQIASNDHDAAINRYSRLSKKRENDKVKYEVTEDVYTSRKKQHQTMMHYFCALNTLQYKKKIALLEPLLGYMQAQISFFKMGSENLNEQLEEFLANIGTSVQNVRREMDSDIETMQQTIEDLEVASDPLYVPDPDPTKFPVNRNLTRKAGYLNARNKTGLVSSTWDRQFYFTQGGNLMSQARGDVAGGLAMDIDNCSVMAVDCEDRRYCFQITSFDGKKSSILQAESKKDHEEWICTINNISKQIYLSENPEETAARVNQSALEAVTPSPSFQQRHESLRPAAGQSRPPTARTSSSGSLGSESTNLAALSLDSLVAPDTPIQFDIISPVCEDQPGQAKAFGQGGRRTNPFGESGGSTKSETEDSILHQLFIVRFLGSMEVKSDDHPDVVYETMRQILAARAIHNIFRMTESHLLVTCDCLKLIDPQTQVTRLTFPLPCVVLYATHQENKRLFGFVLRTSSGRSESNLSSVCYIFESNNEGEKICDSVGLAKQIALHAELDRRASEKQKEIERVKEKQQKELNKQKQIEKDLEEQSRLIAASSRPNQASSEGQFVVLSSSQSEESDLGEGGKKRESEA
UniProt Q8WWN8: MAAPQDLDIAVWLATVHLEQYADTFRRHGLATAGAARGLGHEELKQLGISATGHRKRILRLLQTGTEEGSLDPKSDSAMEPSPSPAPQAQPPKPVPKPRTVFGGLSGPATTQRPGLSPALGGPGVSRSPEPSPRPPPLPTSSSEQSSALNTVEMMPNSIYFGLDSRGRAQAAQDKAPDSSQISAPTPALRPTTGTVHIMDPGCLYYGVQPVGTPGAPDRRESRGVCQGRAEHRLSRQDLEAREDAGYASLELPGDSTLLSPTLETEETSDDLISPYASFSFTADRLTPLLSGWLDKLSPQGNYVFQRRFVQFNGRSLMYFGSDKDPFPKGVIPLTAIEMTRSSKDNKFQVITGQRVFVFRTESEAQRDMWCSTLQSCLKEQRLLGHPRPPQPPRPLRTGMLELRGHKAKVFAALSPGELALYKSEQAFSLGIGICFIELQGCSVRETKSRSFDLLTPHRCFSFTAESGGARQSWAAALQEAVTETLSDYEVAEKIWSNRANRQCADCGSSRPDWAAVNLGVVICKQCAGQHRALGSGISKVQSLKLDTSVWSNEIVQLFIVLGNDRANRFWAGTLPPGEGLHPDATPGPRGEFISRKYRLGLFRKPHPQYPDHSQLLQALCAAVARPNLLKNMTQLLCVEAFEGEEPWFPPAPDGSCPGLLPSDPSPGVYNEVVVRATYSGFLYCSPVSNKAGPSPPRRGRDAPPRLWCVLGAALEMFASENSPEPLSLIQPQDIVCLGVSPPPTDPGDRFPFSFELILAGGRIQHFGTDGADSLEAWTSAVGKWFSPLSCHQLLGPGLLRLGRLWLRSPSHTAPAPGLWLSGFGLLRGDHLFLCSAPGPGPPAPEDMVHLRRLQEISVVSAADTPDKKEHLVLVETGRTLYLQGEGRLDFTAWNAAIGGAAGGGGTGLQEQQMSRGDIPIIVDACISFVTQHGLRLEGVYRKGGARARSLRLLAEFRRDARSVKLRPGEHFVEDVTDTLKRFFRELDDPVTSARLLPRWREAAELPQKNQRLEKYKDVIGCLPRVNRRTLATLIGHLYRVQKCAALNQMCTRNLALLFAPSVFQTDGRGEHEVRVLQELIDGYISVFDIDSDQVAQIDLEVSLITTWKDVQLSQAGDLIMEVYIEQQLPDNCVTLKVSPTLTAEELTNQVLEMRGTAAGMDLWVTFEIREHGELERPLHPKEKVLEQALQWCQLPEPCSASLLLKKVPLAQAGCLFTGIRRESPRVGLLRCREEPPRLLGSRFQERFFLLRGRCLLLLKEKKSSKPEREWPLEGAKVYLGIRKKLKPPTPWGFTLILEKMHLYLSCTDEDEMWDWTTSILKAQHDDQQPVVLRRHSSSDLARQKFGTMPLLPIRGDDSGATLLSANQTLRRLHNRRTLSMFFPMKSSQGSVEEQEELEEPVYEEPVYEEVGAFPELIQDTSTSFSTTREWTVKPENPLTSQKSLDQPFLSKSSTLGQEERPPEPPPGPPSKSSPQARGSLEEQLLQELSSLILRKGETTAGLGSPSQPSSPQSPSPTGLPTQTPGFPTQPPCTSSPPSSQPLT
UniProt Q92974: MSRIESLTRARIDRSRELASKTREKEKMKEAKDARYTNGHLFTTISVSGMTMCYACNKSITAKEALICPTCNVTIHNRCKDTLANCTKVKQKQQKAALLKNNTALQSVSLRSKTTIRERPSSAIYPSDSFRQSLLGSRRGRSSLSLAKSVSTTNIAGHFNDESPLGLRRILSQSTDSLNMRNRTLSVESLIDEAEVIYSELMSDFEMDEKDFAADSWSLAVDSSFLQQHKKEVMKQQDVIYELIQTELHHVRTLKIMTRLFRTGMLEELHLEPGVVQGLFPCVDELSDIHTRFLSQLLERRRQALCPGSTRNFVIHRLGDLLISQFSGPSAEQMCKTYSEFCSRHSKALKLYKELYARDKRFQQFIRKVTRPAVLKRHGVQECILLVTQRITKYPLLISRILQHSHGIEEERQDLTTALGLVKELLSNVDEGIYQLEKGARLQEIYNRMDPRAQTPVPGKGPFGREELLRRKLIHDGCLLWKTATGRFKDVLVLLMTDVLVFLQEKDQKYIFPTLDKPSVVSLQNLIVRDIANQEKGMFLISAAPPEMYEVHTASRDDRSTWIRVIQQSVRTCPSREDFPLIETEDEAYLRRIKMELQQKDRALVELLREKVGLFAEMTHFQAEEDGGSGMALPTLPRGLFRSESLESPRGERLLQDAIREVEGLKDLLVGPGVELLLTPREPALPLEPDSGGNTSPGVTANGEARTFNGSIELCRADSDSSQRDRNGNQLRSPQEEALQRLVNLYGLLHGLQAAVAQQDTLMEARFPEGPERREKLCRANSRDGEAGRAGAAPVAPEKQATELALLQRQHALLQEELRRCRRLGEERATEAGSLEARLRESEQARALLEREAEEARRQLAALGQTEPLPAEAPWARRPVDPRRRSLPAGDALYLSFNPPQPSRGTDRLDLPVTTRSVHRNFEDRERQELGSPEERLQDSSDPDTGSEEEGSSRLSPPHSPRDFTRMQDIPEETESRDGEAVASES
UniProt P40616: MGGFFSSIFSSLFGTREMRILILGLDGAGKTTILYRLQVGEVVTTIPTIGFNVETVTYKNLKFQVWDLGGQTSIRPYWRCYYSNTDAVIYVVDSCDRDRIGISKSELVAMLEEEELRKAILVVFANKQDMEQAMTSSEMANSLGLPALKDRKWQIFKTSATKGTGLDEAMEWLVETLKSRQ
UniProt Q5T2E6: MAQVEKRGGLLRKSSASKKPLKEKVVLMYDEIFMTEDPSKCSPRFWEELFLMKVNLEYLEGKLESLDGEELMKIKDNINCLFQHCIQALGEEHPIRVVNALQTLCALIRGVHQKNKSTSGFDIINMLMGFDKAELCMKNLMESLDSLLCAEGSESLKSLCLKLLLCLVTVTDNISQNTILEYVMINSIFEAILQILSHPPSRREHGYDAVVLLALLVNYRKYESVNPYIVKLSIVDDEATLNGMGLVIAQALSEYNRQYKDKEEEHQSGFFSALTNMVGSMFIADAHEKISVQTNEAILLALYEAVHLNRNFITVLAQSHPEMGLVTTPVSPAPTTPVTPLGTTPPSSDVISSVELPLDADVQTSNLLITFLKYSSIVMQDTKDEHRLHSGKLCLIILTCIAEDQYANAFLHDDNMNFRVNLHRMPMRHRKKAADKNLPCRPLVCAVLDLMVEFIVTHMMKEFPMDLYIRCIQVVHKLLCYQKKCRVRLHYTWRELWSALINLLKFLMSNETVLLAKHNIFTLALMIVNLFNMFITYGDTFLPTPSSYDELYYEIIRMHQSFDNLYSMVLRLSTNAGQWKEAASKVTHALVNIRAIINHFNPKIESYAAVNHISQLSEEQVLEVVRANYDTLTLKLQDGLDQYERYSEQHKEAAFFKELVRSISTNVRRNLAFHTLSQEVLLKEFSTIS

Compound: Cc1cc(ccc1-c1ccccc1)C(=O)N1CCCN(CC1)C(=O)CCl [compound 10]
Assay: probe-labelled cysteine peptide fold change vs DMSO (competition) (log2 fold change); higher = less target engagement (more negative = stronger competition)
Settings: THP-1, incubation time: 4 h
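Further: competitive profiling in live THP-1 cells: cysteine peptides tagged with an iodoacetamide desthiobiotin (IA-DTB) probe, intensity after compound treatment relative to DMSO-treated cells.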

ARPC2_O15144_120_NCFASVFEK (UniProt O15144)
probe-labelled cysteine peptide fold change (10 µM): -0.0375 | probe-labelled cysteine peptide fold change (50 µM): 0.00267

ARHGEF6_Q15052_182_QTNEDELSVCK (UniProt Q15052)
probe-labelled cysteine peptide fold change (10 µM): 0.0773 | probe-labelled cysteine peptide fold change (50 µM): 0.00472

ARHGAP45_Q92619_469_TCVADAK (UniProt Q92619)
probe-labelled cysteine peptide fold change (10 µM): 0.126 | probe-labelled cysteine peptide fold change (50 µM): -0.0757

ARCN1_P48444_9_VLLAAAVCTK (UniProt P48444)
probe-labelled cysteine peptide fold change (10 µM): 0.0514 | probe-labelled cysteine peptide fold change (50 µM): 0.0775

ARHGEF10_O15013_477_EILQCHSLFQIALASR (UniProt O15013)
probe-labelled cysteine peptide fold change (10 µM): 0.0754 | probe-labelled cysteine peptide fold change (50 µM): 0.721

ARIH1_Q9Y4X5_362_DGGCNHMVCR (UniProt Q9Y4X5)
probe-labelled cysteine peptide fold change (10 µM): 0.0883 | probe-labelled cysteine peptide fold change (50 µM): -0.0719

ARHGEF6_Q15052_319_VGGCLLSLMPHFK (UniProt Q15052)
probe-labelled cysteine peptide fold change (10 µM): -0.297 | probe-labelled cysteine peptide fold change (50 µM): -0.105

ARHGEF11_O15085_866_FQLFMQEAESHPQCR (UniProt O15085)
probe-labelled cysteine peptide fold change (10 µM): 0.00238 | probe-labelled cysteine peptide fold change (50 µM): 0.247

ARHGAP17_Q68EM7_53_LVACFQGQHGTDAERR (UniProt Q68EM7)
probe-labelled cysteine peptide fold change (10 µM): 0.0758 | probe-labelled cysteine peptide fold change (50 µM): -0.131

APPL1_Q9UKG1_549_MTESHLLVTCDCLK (UniProt Q9UKG1)
probe-labelled cysteine peptide fold change (10 µM): 0.194 | probe-labelled cysteine peptide fold change (50 µM): 0.317

ARHGAP45_Q92619_528_SATISYYQMMHMQTAPLPVHFQMLCESSK (UniProt Q92619)
probe-labelled cysteine peptide fold change (10 µM): -0.125 | probe-labelled cysteine peptide fold change (50 µM): -0.0917

ARPC3_O15145_162_WWTCFVK (UniProt O15145)
probe-labelled cysteine peptide fold change (10 µM): -0.0423 | probe-labelled cysteine peptide fold change (50 µM): 0.139

ARHGEF18_Q6ZSZ5_788_AVESCPDEEEGPFSLPEEERK (UniProt Q6ZSZ5)
probe-labelled cysteine peptide fold change (10 µM): -0.137 | probe-labelled cysteine peptide fold change (50 µM): 0.0513

ARAP3_Q8WWN8_835_GDHLFLCSAPGPGPPAPEDMVHLR (UniProt Q8WWN8)
probe-labelled cysteine peptide fold change (10 µM): -0.23 | probe-labelled cysteine peptide fold change (50 µM): -0.0406

ARMC1_Q9NVT9_40_AIVQDQGCLPGLILFMDHPNPPVVHSALLALR (UniProt Q9NVT9)
probe-labelled cysteine peptide fold change (10 µM): -0.0298 | probe-labelled cysteine peptide fold change (50 µM): 0.0978

ARHGEF2_Q92974_715_TFNGSIELCR (UniProt Q92974)
probe-labelled cysteine peptide fold change (10 µM): -0.114 | probe-labelled cysteine peptide fold change (50 µM): -0.246

ARHGAP25_P42331_154_VAGTPCGVFGQR (UniProt P42331)
probe-labelled cysteine peptide fold change (10 µM): 0.0161 | probe-labelled cysteine peptide fold change (50 µM): -0.205

ARL1_P40616_95_CYYSNTDAVIYVVDSCDRDR (UniProt P40616)
probe-labelled cysteine peptide fold change (10 µM): 0.0139 | probe-labelled cysteine peptide fold change (50 µM): -0.306

ARMH3_Q5T2E6_80_DNINCLFQHCIQALGEEHPIR (UniProt Q5T2E6)
probe-labelled cysteine peptide fold change (10 µM): -0.0987 | probe-labelled cysteine peptide fold change (50 µM): 0.413

ARHGEF18_Q6ZSZ5_315_ECVNGHQLLQGTFSGPSSCPLCGKPFLSSASLK (UniProt Q6ZSZ5)
probe-labelled cysteine peptide fold change (10 µM): -0.203 | probe-labelled cysteine peptide fold change (50 µM): -0.62

ARHGEF2_Q92974_478_LIHDGCLLWK (UniProt Q92974)
probe-labelled cysteine peptide fold change (10 µM): -0.108 | probe-labelled cysteine peptide fold change (50 µM): -0.0351

ARHGAP26_Q9UNA1_767_ALYACK (UniProt Q9UNA1)
probe-labelled cysteine peptide fold change (10 µM): -0.0407 | probe-labelled cysteine peptide fold change (50 µM): -0.00284

ARL6_Q9H0F7_22_EVHVLCLGLDNSGK (UniProt Q9H0F7)
probe-labelled cysteine peptide fold change (10 µM): -0.0801 | probe-labelled cysteine peptide fold change (50 µM): 0.188

ARMT1_Q9H993_398_WEFSVPFHQALNGFHPAPLCTIR (UniProt Q9H993)
probe-labelled cysteine peptide fold change (10 µM): -0.184 | probe-labelled cysteine peptide fold change (50 µM): -0.061

ARMH3_Q5T2E6_105_VVNALQTLCALIR (UniProt Q5T2E6)
probe-labelled cysteine peptide fold change (10 µM): -0.0975 | probe-labelled cysteine peptide fold change (50 µM): 0.888

ARIH2_O95376_270_QMYHAPTDCATIR (UniProt O95376)
probe-labelled cysteine peptide fold change (10 µM): 0.104 | probe-labelled cysteine peptide fold change (50 µM): 0.0258

ARF6_P62330_90_HYYTGTQGLIFVVDCADRDR (UniProt P62330)
probe-labelled cysteine peptide fold change (10 µM): 0.104 | probe-labelled cysteine peptide fold change (50 µM): 0.378
